Source: the supplement of paper PMC12067093, “Discovery and optimisation of a covalent ligand for TRIM25 and its application to targeted protein ubiquitination” (Chemical Science, 2025)
This is one part of the list.

The chains behind the UniProt entries cited, without tags or fusion partners. Where a name states a change or a piece, a line headed by the entry shows the natural chain unless it says otherwise.
UniProt P50570: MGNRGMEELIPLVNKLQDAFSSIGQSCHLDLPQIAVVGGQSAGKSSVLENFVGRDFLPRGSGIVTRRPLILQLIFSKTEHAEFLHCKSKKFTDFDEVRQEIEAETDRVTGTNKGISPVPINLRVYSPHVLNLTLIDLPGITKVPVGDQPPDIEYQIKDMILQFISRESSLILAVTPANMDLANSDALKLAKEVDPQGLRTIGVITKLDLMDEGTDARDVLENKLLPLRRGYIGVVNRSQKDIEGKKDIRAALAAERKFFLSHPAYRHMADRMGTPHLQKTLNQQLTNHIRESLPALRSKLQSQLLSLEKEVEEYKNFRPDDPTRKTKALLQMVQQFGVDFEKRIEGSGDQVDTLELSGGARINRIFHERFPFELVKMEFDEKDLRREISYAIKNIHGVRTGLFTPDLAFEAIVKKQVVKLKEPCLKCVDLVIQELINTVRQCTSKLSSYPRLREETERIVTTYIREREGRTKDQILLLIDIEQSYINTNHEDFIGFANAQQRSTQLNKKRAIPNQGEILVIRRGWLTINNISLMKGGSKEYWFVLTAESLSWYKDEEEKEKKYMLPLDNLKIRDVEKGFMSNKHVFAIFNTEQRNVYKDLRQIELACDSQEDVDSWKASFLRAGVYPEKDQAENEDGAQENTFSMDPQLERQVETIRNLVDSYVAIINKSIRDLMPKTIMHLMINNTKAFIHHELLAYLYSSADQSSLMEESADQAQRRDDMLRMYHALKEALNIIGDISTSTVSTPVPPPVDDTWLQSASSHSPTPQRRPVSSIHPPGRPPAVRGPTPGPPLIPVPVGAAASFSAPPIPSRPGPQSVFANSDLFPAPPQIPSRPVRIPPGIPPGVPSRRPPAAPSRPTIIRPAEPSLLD
UniProt Q7Z3D6: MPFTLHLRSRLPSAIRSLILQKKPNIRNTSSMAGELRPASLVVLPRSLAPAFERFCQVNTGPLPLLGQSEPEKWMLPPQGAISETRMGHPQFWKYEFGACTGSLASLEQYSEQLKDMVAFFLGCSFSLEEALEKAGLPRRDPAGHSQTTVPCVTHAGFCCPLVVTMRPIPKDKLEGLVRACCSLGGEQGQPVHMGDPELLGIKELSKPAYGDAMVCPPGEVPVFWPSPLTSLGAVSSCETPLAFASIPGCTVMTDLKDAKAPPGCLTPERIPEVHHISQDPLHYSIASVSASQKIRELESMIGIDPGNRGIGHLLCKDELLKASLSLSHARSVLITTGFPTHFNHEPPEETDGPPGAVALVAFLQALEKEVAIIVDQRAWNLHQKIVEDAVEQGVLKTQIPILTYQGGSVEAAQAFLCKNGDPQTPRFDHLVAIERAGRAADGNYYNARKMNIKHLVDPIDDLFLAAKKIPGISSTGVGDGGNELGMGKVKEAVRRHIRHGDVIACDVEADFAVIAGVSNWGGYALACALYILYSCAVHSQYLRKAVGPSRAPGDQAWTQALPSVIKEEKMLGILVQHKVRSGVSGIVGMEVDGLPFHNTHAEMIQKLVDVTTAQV
UniProt Q96GE9: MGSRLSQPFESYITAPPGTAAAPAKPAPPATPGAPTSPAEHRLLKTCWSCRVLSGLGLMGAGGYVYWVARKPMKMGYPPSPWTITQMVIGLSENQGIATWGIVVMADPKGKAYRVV
UniProt Q8WXX5: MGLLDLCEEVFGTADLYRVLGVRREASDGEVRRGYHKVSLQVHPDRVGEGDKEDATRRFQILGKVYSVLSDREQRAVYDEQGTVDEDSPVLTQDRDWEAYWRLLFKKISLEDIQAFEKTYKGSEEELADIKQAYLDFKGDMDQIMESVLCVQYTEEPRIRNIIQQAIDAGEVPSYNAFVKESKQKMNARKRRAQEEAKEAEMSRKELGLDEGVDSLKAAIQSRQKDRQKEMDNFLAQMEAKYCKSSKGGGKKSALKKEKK
UniProt Q8TBM8: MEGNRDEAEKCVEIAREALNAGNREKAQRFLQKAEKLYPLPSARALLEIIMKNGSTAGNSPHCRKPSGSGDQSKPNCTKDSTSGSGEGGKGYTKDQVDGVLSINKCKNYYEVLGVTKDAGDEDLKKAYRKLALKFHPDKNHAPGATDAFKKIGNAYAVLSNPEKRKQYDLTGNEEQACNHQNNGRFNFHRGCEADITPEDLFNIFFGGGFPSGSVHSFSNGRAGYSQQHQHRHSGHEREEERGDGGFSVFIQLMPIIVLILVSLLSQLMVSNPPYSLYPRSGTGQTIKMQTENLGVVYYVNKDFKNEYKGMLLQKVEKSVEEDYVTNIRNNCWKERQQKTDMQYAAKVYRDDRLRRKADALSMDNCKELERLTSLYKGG
UniProt Q96EY1: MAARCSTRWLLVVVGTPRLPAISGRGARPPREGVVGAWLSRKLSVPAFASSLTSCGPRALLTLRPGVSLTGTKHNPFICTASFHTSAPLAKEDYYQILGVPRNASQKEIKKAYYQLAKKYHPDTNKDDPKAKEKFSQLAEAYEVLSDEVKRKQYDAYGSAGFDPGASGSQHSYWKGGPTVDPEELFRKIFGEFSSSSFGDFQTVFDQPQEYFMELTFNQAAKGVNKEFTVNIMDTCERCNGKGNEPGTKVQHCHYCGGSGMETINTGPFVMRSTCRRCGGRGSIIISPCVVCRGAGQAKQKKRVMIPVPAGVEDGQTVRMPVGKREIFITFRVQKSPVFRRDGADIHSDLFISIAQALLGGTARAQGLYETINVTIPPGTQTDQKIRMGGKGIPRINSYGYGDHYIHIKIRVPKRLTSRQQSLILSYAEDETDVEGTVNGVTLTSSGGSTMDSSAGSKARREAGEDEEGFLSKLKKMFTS
UniProt Q9BPW9: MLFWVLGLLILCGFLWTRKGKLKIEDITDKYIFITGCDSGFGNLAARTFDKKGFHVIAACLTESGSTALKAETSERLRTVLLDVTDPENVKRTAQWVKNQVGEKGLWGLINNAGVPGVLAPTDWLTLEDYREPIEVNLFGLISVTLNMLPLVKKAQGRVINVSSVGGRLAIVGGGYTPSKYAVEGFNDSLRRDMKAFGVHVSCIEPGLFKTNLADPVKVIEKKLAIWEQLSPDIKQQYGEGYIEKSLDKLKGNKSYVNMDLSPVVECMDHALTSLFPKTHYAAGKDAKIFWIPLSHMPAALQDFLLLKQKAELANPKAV
UniProt Q7Z478: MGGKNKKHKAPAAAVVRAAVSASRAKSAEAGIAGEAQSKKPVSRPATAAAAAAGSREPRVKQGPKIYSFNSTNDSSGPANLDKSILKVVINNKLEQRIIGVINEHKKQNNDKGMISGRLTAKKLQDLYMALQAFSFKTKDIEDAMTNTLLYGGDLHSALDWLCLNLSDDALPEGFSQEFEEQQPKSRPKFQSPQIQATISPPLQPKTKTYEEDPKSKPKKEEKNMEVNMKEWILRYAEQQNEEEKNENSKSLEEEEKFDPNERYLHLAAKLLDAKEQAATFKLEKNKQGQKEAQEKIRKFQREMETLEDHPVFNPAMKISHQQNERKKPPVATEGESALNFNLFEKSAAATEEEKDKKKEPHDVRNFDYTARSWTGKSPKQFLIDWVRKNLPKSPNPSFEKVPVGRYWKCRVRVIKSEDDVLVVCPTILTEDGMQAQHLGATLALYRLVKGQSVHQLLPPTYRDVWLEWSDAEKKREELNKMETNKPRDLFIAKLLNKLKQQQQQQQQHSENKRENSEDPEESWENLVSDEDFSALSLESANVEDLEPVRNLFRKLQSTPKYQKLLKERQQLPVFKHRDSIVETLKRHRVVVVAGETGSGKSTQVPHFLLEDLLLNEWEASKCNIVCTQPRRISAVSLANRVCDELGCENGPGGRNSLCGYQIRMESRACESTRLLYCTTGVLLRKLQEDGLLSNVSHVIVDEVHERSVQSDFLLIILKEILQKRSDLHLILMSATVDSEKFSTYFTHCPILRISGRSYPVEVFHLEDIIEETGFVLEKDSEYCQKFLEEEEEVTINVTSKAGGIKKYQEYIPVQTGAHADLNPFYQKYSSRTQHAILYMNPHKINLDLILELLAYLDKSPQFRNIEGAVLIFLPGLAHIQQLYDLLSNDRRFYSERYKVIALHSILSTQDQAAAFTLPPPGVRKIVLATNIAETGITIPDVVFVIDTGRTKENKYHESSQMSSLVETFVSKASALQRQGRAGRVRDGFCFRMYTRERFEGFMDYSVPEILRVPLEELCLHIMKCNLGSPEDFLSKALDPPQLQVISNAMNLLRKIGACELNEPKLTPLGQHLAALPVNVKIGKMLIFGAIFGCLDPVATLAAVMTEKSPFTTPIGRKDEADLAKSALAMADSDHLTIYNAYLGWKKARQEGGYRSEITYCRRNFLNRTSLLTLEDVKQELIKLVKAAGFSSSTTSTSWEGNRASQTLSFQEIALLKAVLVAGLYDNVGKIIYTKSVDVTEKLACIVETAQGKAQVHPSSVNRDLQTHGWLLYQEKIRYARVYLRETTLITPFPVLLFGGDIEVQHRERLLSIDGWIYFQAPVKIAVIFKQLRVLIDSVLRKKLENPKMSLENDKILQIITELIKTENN
UniProt Q08211, whole entry, looked up: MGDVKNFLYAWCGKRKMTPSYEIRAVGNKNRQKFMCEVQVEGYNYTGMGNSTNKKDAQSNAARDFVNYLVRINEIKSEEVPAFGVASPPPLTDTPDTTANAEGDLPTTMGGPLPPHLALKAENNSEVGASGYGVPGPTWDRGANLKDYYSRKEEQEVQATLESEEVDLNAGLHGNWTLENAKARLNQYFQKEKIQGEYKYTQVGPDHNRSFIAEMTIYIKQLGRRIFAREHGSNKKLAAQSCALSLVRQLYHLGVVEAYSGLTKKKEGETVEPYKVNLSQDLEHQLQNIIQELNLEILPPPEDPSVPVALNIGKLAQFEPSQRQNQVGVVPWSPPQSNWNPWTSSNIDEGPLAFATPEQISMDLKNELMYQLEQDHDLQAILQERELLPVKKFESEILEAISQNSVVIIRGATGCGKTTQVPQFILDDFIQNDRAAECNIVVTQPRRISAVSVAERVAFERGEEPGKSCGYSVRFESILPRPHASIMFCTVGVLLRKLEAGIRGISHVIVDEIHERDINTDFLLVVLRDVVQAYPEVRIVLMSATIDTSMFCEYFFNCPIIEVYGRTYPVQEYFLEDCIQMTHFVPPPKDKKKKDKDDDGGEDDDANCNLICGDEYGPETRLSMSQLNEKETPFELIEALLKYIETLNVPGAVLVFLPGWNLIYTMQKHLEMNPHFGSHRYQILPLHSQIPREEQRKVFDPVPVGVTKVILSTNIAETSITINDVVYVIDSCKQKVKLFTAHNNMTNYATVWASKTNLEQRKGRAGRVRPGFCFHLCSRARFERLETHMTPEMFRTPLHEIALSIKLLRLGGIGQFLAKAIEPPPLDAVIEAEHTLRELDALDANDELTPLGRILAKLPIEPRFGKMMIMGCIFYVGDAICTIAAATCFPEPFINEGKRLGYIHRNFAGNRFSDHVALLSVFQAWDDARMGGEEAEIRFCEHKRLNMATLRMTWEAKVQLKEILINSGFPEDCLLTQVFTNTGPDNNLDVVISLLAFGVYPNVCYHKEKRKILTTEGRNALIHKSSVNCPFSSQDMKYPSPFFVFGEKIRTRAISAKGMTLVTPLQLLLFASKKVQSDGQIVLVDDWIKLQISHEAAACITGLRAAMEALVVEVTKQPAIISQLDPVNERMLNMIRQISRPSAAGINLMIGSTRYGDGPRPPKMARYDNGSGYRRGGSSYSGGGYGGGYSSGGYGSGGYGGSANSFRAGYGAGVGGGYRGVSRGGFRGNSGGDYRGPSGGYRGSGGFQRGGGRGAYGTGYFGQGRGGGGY
UniProt Q9NRI5: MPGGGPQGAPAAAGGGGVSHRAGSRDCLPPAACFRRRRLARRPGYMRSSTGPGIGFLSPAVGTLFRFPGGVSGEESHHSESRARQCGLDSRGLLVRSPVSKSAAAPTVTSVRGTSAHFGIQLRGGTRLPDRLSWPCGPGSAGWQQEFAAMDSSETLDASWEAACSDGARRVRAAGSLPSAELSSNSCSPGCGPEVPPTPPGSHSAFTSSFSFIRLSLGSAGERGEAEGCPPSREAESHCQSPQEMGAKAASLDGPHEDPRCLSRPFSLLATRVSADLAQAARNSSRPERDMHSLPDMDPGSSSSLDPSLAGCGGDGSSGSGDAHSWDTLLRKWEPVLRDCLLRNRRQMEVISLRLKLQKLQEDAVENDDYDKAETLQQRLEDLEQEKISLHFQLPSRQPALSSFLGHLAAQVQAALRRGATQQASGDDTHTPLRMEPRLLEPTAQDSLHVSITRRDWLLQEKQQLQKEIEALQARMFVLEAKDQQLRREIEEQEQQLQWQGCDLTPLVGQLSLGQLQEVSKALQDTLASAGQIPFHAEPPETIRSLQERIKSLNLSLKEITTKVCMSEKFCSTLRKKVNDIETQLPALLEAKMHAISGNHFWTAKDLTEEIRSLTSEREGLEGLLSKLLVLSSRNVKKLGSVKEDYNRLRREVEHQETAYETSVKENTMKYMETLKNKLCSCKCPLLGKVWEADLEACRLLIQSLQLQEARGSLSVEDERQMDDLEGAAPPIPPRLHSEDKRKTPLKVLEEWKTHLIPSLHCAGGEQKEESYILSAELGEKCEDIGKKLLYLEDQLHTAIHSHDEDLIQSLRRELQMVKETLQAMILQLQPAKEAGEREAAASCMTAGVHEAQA

Compound: CC1Cc2ccccc2N1C(=O)C1CCCN(C1)C(=O)CCl (mixture of isomers) [TRIM25 ligand 11 (diastereomer mixture)]
Test: probe-labelled cysteine peptide fold change vs DMSO (competition) (log2 fold change); higher = less target engagement (more negative = stronger competition)
Conditions: THP-1, incubation time: 4 h
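Further: competitive chemoproteomic profiling in live THP-1 cells with an iodoacetamide desthiobiotin (IA-DTB) probe, comparing probe-labelled peptide intensities in compound-treated cells against DMSO-treated controls.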

Row | Target | probe-labelled cysteine peptide fold change (10 µM) | probe-labelled cysteine peptide fold change (50 µM)
1 | DNAAF2_Q9NVR5_673_LQECSNSDQLQGK (UniProt Q9NVR5) | 0.271 | 0.0311
2 | DHX8_Q14562_280_VTSIMQFGCFVQLEGLR (UniProt Q14562) | 0.143 | 0.042
3 | DNAJC13_O75165_2082_VIHALSENELCVR (UniProt O75165) | 0.113 | -0.121
4 | DNM2_P50570_86_TEHAEFLHCK (UniProt P50570) | -0.0461 | 0.0442
5 | DNASE1L1_P49184_224_ASTHCTYDR (UniProt P49184) | 0.107 | -0.0989
6 | DNAJA2_O60884_146_NVLCSACSGQGGK (UniProt O60884) | -0.15 | -0.0701
7 | DGLUCY_Q7Z3D6_418_TQIPILTYQGGSVEAAQAFLCK (UniProt Q7Z3D6) | -0.0339 | 0.0164
8 | DNAJC16_Q9Y2G8_744_GKPSCGLGSRPIK (UniProt Q9Y2G8) | -0.287 | -0.281
9 | DMAC1_Q96GE9_50_TCWSCR (UniProt Q96GE9) | -0.0609 | 0.289
10 | DHX15_O43143_190_RGVACTQPR (UniProt O43143) | -0.00445 | -0.0278
11 | DHX34_Q14147_628_SAQSSPECAAAR (UniProt Q14147) | -0.0842 | -0.0802
12 | DIAPH1_O60610_267_LLSALCILPQPEDMNER (UniProt O60610) | -0.121 | -0.0922
13 | DIAPH3_Q9NSV4_663_IRPHEMTENCFWIK (UniProt Q9NSV4) | -0.181 | -0.0782
14 | DNM1L_O00429_446_IIQHCSNYSTQELLR (UniProt O00429) | 0.118 | -0.281
15 | DMAC2_Q9NW81_159_CCHVDDWCLSR (UniProt Q9NW81) | 0.099 | 0.197
16 | DNAJC9_Q8WXX5_150_GDMDQIMESVLCVQYTEEPR (UniProt Q8WXX5) | 0.0209 | -0.0796
17 | DNAJB14_Q8TBM8_178_QYDLTGNEEQACNHQNNGR (UniProt Q8TBM8) | -0.286 | -0.352
18 | DNAJA3_Q96EY1_253+256_VQHCHYCGGSGMETINTGPFVMR (UniProt Q96EY1) | -0.169 | -0.0973
19 | DIAPH2_O60879_884_TTLLHFIADICEEK (UniProt O60879) | -0.0101 | 0.0779
20 | DNM2_P50570-3_427_CVDLVVSELATVIKK (UniProt P50570) | -0.178 | 0.127

Reprinted: entries 17 to 18
Row | Target | probe-labelled cysteine peptide fold change (10 µM) | probe-labelled cysteine peptide fold change (50 µM)
17 | DNAJB14_Q8TBM8_178_QYDLTGNEEQACNHQNNGR (UniProt Q8TBM8) | -0.286 | -0.352
18 | DNAJA3_Q96EY1_253+256_VQHCHYCGGSGMETINTGPFVMR (UniProt Q96EY1) | -0.169 | -0.0973

Next records.

Row | Target | probe-labelled cysteine peptide fold change (10 µM) | probe-labelled cysteine peptide fold change (50 µM)
21 | DMRT1_Q9Y5R6_105_CNLIAER (UniProt Q9Y5R6) | 1.19 | 0.0204
22 | DNAJC7_Q99615_317_LDDAIEDCTNAVK (UniProt Q99615) | 0.0496 | 0.0796
23 | DHRS9_Q9BPW9_60_KGFHVIAACLTESGSTALK (UniProt Q9BPW9) | -0.0468 | 0.0975
24 | DHX30_Q7L2E3_346_RPCTIQVPEPILR (UniProt Q7L2E3) | -0.167 | -0.454
25 | DIS3_Q9Y2L1_474+476_HLCICSVDPPGCTDIDDALHCR (UniProt Q9Y2L1) | -0.108 | -0.0672
26 | DNAJC3_Q13217_184_ILEVCVWDAELR (UniProt Q13217) | 0.0448 | 0.235
27 | DMXL1_Q9Y485_1352_CIAGEVVALNEAESNHER (UniProt Q9Y485) | 0.0707 | -0.383
28 | DNAJA1_P31689_134_NVICDK (UniProt P31689) | 0.0262 | 0.114
29 | DHTKD1_Q96HY7_808_TLVFCSGK (UniProt Q96HY7) | 0.0458 | 0.119
30 | DNAJC2_Q99543_140_EGDNDYFTCITK (UniProt Q99543) | -0.135 | 0.0174
31 | DHRS7_Q9Y394_172_CVLPHMIER (UniProt Q9Y394) | -0.0579 | -0.0142
32 | DHX29_Q7Z478_1245_LACIVETAQGK (UniProt Q7Z478) | 0.132 | 0.0083
33 | DHX9_Q08211_242_KLAAQSCALSLVR (UniProt Q08211) | -0.115 | -0.0446
34 | DHCR24_Q15392_474_SVHGFQMLYADCYMNREEFWEMFDGSLYHK (UniProt Q15392) | 0.16 | -0.0758
35 | DHX9_Q08211_415_GATGCGK (UniProt Q08211) | -0.0943 | -0.0219
36 | DISC1_Q9NRI5_239_EAESHCQSPQEMGAK (UniProt Q9NRI5) | 0.0303 | -0.145
37 | DHX9_Q08211_608+612_KDKDDDGGEDDDANCNLICGDEYGPETR (UniProt Q08211) | -0.128 | -0.345
38 | DIDO1_Q9BTC0_350_WRPGDADGTDCTSIGTIEQK (UniProt Q9BTC0) | 0.153 | -0.0755
39 | DHRS7B_Q6IAN0_220_HATQAFFDCLR (UniProt Q6IAN0) | 0.107 | -0.128
